From patent publication US20250262271A1 (ARIZONA BOARD OF REGENTS ON BEHALF OF THE UNIVERSITY OF …, published 2025)
These are yes or no findings as the source states them, for the method shown. Binding seen in cells or lysates may run through a third protein. Some results given as binding are weak or reduced against the parent protein; the word gives no strength. Tags and fused reporters may be left off the sequences shown.

Biological target: T1, Gtr1-myc (Saccharomyces cerevisiae) (UniProt Q00582)
T1 sequence (looked up): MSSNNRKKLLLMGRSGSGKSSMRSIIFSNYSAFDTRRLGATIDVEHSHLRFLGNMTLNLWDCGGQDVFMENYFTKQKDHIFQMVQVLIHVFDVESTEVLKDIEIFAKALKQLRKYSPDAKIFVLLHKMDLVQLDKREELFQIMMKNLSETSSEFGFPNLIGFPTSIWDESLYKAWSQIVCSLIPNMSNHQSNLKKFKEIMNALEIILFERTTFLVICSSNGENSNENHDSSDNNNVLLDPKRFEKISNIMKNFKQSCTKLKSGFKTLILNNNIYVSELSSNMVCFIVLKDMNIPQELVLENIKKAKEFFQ
Experiment: co-immunoprecipitation, Western blot

binding: binds
B1: GFP-Ait1 (other)
chain: MVRLNHAASYFMPIFCSTRPHIVILSALFSISLFSLFYASSELLLHQYDDPLMFKPNSQDYFRTFLLGLFSPFLYYFLKTFLFNINQRFLILNLIVDFPINDVFMLLILIGLAYPQVQDHEGGTIKHKECSWHIIPRQAYIFGISWALGEFTICIIGNLFNYQEIADPNINSGFTHQESANTYCNNNDMSHNDDCGCSTEYRPNVVDRSDITLSKCIEVRNDSSSISNNVYSSEYHPIKPLRSSSSTYGSIRQQPHENKKQLHVPDNSQDDTIIMMNPIDNSLKLTTLDTGDLSFPIDEEQPILKKSFGYTWAVPNENTQNTTKSFTPIKRFIAFSTAYQLVTGLLLMILVVGSNIMLTIGESLILSMYFVYVRGHEGLFTPVVNYFGSRTISNFILCVIIPFISLNFLINTSIYLRRELDDWFNNSQGEFEDDDENTISKRVATNQEYQHPLSANYISMDSPDVINSSPGHFGMNSGQLLGNTTLYYGSLNGDDDDMTNDSALLRFCKKLVKNWRALARNDSFVLGVMVSWSLLVFVTGILSTVYI
notes: Expressed in S. cerevisiae (W303) and immunopurified from DSP-crosslinked, digitonin-treated lysate; also called Ait1-GFP; GFP-tagged Ydl180w; not shown: GFP tag
